Results: patent US20210379147A1, “METHOD AND SYSTEM FOR TREATING CANCER UTILIZING TINAGL1” (The Trustees of Princeton University, priority 2018, published 2021)
These are yes or no findings as the source states them, for the method shown. In cells and extracts the contact can be indirect. A yes stands for co-enrichment or nearness to the bait. Other partners may have been found. Sequences can lack the tags named with a protein.

Biological target: Fibronectin (FN)
Assay: IP-mass spectrometry; IP and WB of HEK293T Tinagl1-HA lysate with 5 µg of FN added (FIG. 15B)

B1: C-terminal HA tagged Tinagl1 (Tinagl1-HA) (other)
chain: AQQGRGRRELAPGLHLRGIRDAGGRYCQEQDLCCRGRADDCALPYLGAICYCDLFCNRTVSDCCPDFWDFCLGVPPPFPPIQGCMHGGRIYPVLGTYWDNCNRCTCQENRQWQCDQEPCLVDPDMIKAINQGNYGWQAGNHSAFWGMTLDEGIRYRLGTIRPSSSVMNMHEIYTVLNPGEVLPTAFEASEKWPNLIHEPLDQGNCAGSWAFSTAAVASDRVSIHSLGHMTPVLSPQNLLSCDTHQQQGCRGGRLDGAWWFLRRRGVVSDHCYPFSGRERDEAGPAPPCMMHSRAMGRGKRQATAHCPNSYVNNNDIYQVTPVYRLGSNDKEIMKELMENGPVQALMEVHEDFFLYKGGIYSHTPVSLGRPERYRRHGTHSVKITGWGEETLPDGRTLKYWTAANSWGPAWGERGHFRIVRGVNECDIESFVLGVWGRVGMEDMGHH
notes: Expressed in LM2 or HEK293T cells; assayed in cell lysate mixed with concentrated culture media; also called Tiangl1-HA; not shown: human influenza hemagglutinin (HA) tag fused to the C-terminal
binding: binds
